These are yes or no findings as the source states them, for the method shown. Some entries that bind do so weakly or less than the wild type.
Assays:
[1] = biological target: Spt16 (suppressor of Ty), larger subunit of yeast FACT (yeast) (UniProt P32558); assay: co-purification; purified as heterodimers from yeast cells overexpressing both proteins
[2] = biological target: Spt16ΔC (yeast) (UniProt P32558); assay: as above

Chains of the proteins cited; added tags and fusions are not shown. Lines headed by an entry give the natural chain unless they say otherwise; changes in a name come on top. Residues count along the entry.
UniProt P32558: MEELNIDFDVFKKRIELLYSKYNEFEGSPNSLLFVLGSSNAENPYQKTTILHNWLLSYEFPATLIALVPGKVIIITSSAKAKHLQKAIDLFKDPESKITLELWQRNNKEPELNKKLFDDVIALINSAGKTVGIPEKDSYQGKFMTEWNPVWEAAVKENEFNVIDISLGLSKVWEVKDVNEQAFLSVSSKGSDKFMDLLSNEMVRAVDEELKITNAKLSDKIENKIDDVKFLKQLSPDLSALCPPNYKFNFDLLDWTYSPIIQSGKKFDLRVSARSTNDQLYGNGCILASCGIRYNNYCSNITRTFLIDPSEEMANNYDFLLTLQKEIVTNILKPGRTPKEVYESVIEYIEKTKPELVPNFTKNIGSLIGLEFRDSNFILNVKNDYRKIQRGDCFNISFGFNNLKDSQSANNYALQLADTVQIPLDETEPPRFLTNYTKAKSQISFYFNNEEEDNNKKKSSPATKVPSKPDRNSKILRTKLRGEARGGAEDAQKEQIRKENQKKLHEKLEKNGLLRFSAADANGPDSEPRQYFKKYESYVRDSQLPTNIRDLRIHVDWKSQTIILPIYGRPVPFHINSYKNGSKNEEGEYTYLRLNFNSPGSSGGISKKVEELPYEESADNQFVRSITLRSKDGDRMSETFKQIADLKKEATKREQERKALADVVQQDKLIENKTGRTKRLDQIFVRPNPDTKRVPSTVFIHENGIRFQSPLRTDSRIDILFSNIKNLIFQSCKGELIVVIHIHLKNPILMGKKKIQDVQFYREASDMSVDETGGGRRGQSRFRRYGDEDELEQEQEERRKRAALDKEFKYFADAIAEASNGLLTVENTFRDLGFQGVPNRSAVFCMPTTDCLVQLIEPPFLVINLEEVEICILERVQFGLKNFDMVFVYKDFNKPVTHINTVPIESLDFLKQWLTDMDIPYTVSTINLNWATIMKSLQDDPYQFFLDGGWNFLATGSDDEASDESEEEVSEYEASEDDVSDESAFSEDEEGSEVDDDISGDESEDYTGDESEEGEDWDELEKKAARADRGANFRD
Spt16ΔC: residues 1-958 of P32558
UniProt Q04636: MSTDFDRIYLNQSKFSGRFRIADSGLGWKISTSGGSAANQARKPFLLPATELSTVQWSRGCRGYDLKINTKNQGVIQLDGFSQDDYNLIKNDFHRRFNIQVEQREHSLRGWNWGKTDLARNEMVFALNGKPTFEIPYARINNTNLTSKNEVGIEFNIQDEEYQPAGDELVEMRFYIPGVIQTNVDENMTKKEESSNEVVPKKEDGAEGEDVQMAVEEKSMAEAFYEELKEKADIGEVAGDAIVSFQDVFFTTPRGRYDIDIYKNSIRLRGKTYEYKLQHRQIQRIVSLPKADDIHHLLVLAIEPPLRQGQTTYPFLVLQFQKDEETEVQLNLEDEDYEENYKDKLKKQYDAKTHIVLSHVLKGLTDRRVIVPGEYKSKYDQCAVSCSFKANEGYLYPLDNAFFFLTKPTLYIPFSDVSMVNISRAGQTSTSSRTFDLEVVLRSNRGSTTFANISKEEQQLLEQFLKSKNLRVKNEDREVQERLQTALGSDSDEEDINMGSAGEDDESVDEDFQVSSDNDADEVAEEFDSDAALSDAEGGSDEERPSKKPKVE

binding [1] | binding [2] | Substance
binds | binds | Pob3 (polymerase one binding), smaller subunit of yeast FACT (from UniProt Q04636 1-552)
binds | binds | Pob3ΔC (from UniProt Q04636 1-477) (domain or fragment)
